Source: publication PMC9899405
These are yes or no findings as the source states them, for the method shown. Binding seen in cells or lysates may run through a third protein. A result given as binding can be weak or reduced; the word gives no strength.

Key:
[1] = biological target: Sirtuin 3 (Sirt3) (human (endogenous in AGS)); assay: co-IP; endogenous proteins in AGS cells (Fig. S3H-I); immunoprecipitation, A/G beads, Western blot
[2] = biological target: Sirtuin 3 (Sirt3) (human (endogenous in AGS)); assay: co-IP; endogenous proteins; cell lysate immunoprecipitated with anti-Sirt3 antibody 12 h at 4 °C, A/G beads, IgG as control, Western blot; cell line not stated (Fig. 2G-H)

B1: Lon protease-1 (LONP1) (enzyme, UniProt P36776 68-959)
chain: FWEASSRGGGAFSGGEDASEGGAEEGAGGAGGSAGAGEGPVITALTPMTIPDVFPHLPLIAITRNPVFPRFIKIIEVKNKKLVELLRRKVRLAQPYVGVFLKRDDSNESDVVESLDEIYHTGTFAQIHEMQDLGDKLRMIVMGHRRVHISRQLEVEPEEPEAENKHKPRRKSKRGKKEAEDELSARHPAELAMEPTPELPAEVLMVEVENVVHEDFQVTEEVKALTAEIVKTIRDIIALNPLYRESVLQMMQAGQRVVDNPIYLSDMGAALTGAESHELQDVLEETNIPKRLYKALSLLKKEFELSKLQQRLGREVEEKIKQTHRKYLLQEQLKIIKKELGLEKDDKDAIEEKFRERLKELVVPKHVMDVVDEELSKLGLLDNHSSEFNVTRNYLDWLTSIPWGKYSNENLDLARAQAVLEEDHYGMEDVKKRILEFIAVSQLRGSTQGKILCFYGPPGVGKTSIARSIARALNREYFRFSVGGMTDVAEIKGHRRTYVGAMPGKIIQCLKKTKTENPLILIDEVDKIGRGYQGDPSSALLELLDPEQNANFLDHYLDVPVDLSKVLFICTANVTDTIPEPLRDRMEMINVSGYVAQEKLAIAERYLVPQARALCGLDESKAKLSSDVLTLLIKQYCRESGVRNLQKQVEKVLRKSAYKIVSGEAESVEVTPENLQDFVGKPVFTVERMYDVTPPGVVMGLAWTAMGGSTLFVETSLRRPQDKDAKGDKDGSLEVTGQLGEVMKESARIAYTFARAFLMQHAPANDYLVTSHIHLHVPEGATPKDGPSAGCTIVTALLSLAMGRPVRQNLAMTGEVSLTGKILPVGGIKEKTIAAKRAGVTCIVLPAENKKDFYDLAAFITEGLEVHFVEHYREIFDIAFPDEQAEALAVER
In the case of B1, the binding [1] is reported as “binds” and the binding [2] is reported as “binds”.
